Laboratory results: PMC6199744, “Development of Chemical Proteomics for the Folateome and Analysis of the Kinetoplastid Folateome” (ACS Infectious Diseases, 2018)
This continues a long series; more values of the same kind are listed elsewhere.

Test system: L. major lysate proteins
Assay: Multitargeted bead mixture chemoproteomics, single concentration competition, proteome-wide
Assay type: binding
Conditions: for fold change: vehicle control = 1

CCCCCCOc1ccc(Cc2cnc(N)nc2N)cc1 [compound 1]
fold change (protein LMJF.28.2750 ACTIVATED PROTEIN KINASE C RECEPTOR (LACK)): 1
fold change (protein LMJF.29.0120 PROTEASOME REGULATORY NON-ATPASE SUBUNIT, PUTATIVE): 0.95
fold change (protein LMJF.29.0760 LIPOPHOSPHOGLYCAN BIOSYNTHETIC PROTEIN, PUTATIVE,HEAT SHOCK PROTEIN 90, PUTATIVE): 0.77
fold change (protein LMJF.29.1240 HYPOTHETICAL PROTEIN, UNKNOWN FUNCTION): 0.92
fold change (protein LMJF.29.1270 100 kDa heat shock protein (Hsp100)): 0.99
fold change vs vehicle control (protein LMJF.30.0120 […] SYNTHASE): 1.28
fold change (protein LMJF.30.0750 4-METHYL-5(BETA-HYDROXYETHYL)-THIAZOLE MONOPHOSPHATE SYNTHESIS PROTEIN, PUTATIVE): 0.88
fold change (protein LMJF.30.1940 SUCCINYL-COA:3-KETOACID-COENZYME A TRANSFERASE- LIKE PROTEIN): 0.94
fold change (protein LMJF.30.2330 HY[…], UNKNOWN FUNCTION): 1.09
fold change (protein LMJF.30.2550 HEAT SHOCK 70-RELATED PROTEIN 1, MIT[…], PUTATIVE): 1.13
fold change (protein LMJF.30.3090 HYPOTHETICAL PROTEIN, CONSERVED): 0.83
fold change (protein LMJF.30.3130 VALYL-TRNA SYNTHETASE, PUTATIVE): 0.99
fold change (protein LMJF.30.3430 HY[…], CONSERVED): 1.01
fold change vs vehicle control (protein LMJF.30.3600 ATP SYNTHASE, EPSILON CHAIN, PUTATIVE): 1.33
fold change (protein LMJF.30.3730 60S ACIDIC RIBOSOMAL PROTEIN P2, PUTATIVE): 0.9
fold change (protein LMJF.32.0050 PROTEIN TRANSPORT PROTEIN SEC13, PUTATIVE): 0.94
fold change (protein LMJF.32.0750 RNA BINDING PROTEIN, PUTATIVE): 1.04
fold change vs vehicle control (protein LMJF.32.1060 DYNEIN, PUTATIVE): 1
fold change (protein LMJF.32.2800 HY[…], CONSERVED): 1.35
fold change (protein LMJF.32.3270 CHAPERONIN ALPHA SUBUNIT, PUTATIVE): 0.94
fold change (protein LMJF.32.3310 DIHYDROLIPOAMIDE DEHYDROGENASE, PUTATIVE): 0.79
fold change (protein LMJF.32.3640 HYPOTHETICAL PROTEIN, CONSERVED): 1
fold change (protein LMJF.33.0240 THIOL-DEPENDENT REDUCTASE 1): 0.96
fold change (protein LMJF.33.0830 2,4-DIENOYL-COA REDUCTASE FADH1, PUTATIVE): 0.68
fold change (protein LMJF.33.1590 HY[…], CONSERVED): 1.17
fold change (protein LMJF.33.1750 MACROPHAGE MIGRATION INHIBITORY FACTOR-LIKE PROTEIN): 0.99
fold change (protein LMJF.33.2060 HYPOTHETICAL PROTEIN, CONSERVED): 0.97
fold change (protein LMJF.33.2270 HY[…], CONSERVED): 1.09
fold change (protein LMJF.33.2340 SUCCINYL-COA:3-KETOACID-COENZYME A TRANSFERASE, MITOCHONDRIAL PRECURSOR, PUTATIVE): 1
fold change (protein LMJF.33.2540 CARBOXYPEPTIDASE, PUTATIVE,METALLO-PEPTIDASE, CLAN MA(E), FAMILY M32): 1.04
fold change (protein LMJF.34.0140 MALATE DEHYDROGENASE): 1
fold change (protein LMJF.34.0350 EUKARYOTIC TRANSLATION INITIATION FACTOR 5, PUTATIVE): 0.91
fold change (protein LMJF.34.0840 T[…] 1-BETA, PUTATIVE): 1.09
fold change (protein LMJF.34.0930 HY[…], CONSERVED): 1.07
fold change (protein LMJF.34.2340 ASPARAGINYL-TRNA SYNTHETASE, PUTATIVE): 0.87
fold change vs vehicle control (protein LMJF.34.2580 HY[…], CONSERVED): 1.13
fold change (protein LMJF.34.3250 PUTATIVE PYRUVATE/INDOLE-PYRUVATE CARBOXYLASE, PUTATIVE): 1.16
fold change (protein LMJF.35.0070 PROHIBITIN, PUTATIVE): 1
fold change (protein LMJF.35.0240 60S RIBOSOMAL PROTEIN L30): 1.08
fold change (protein LMJF.35.0360 ENOYL-COA HYDRATASE/ISOMERASE FAMILY PROTEIN, CONSERVED): 1.3
fold change (protein LMJF.35.0820 ASPARTATE AMINOTRANSFERASE, PUTATIVE): 1.03
fold change (protein LMJF.35.1220 SHORT CHAIN DEHYDROGENASE, PUTATIVE): 0.98
fold change (protein LMJF.35.1230 SHORT CHAIN DEHYDROGENASE, PUTATIVE): 1.04
fold change (protein LMJF.35.3080 GLYCEROL KINASE, GLYCOSOMAL, PUTATIVE): 0.99
fold change (protein LMJF.35.3230 C[…] LYASE, PUTATIVE): 1.04
fold change (protein LMJF.35.4420 MIT[…] TRANSPORTER, PUTATIVE): 1.15
fold change (protein LMJF.36.0070 STRESS-INDUCIBLE PROTEIN STI1 HOMOLOG): 0.87
fold change (protein LMJF.36.0210 SET DOMAIN PROTEIN, PUTATIVE): 0.91
fold change (protein LMJF.36.0320 PROTEASOME BETA 2 SUBUNIT, PUTATIVE): 0.98
fold change (protein LMJF.36.0930 40S RIBOSOMAL PROTEIN S18, PUTATIVE): 1.4
fold change (protein LMJF.36.1260 FRUCTOSE-1,6-BI[…]): 1.14
fold change (protein LMJF.36.1430 TRANSLATION ELONGATION FACTOR 1-BETA, PUTATIVE): 0.94
fold change (protein LMJF.36.1600 PROTEASOME ALPHA 1 SUBUNIT, PUTATIVE): 0.97
fold change (protein LMJF.36.1650 PROTEASOME BETA 5 SUBUNIT, PUTATIVE): 0.94
fold change (protein LMJF.36.2030 CHAPERONIN HSP60, MIT[…]): 1.03
fold change (protein LMJF.36.2160 HYPOTHETICAL PROTEIN, CONSERVED): 0.87
fold change (protein LMJF.36.2660 DIHYDROLIPOAMIDE ACETYLTRANSFERASE PRECURSOR, PUTATIVE): 0.81
fold change (protein LMJF.36.2750 ACETYLTRANSFERASE-LIKE PROTEIN): 1.06
fold change (protein LMJF.36.2950 SUCCINYL-COA LIGASE GDP-FORMING] BETA-CHAIN, PUTATIVE): 1.03
fold change (protein LMJF.36.3210 14-3-3 PROTEIN-LIKE PROTEIN): 1.3
fold change (protein LMJF.36.3410 SHORT CHAIN DEHYDROGENASE-LIKE PROTEIN): 0.89
fold change (protein LMJF.36.3530 POLYUBIQUITIN, PUTATIVE): 1.09
fold change (protein LMJF.36.4420 60S RIBOSOMAL PROTEIN L22, PUTATIVE): 1.13
fold change (protein LMJF.36.4460 HYPOTHETICAL PROTEIN, CONSERVED): 0.98
fold change (protein LMJF.36.6540 […] ENDO-1-LIKE PROTEIN): 1.16
